The list shows a part of the results.
How the values were obtained:
Assay in all cases: log2 fold change, soluble protein after heating vs DMSO (PISA); higher = thermal stabilisation; K562 cells, 10 uM, 30 min; active = over 0.2 and 3.5 SD of the protein, either way, in both replicates (recomputed)
[1] = compound: NC(=O)Nc1cc(-c2cccc(F)c2)sc1C(=O)N[C@H]1CCCNC1
Outline: (§1)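 Quantification of soluble protein used TMTpro 16plex LC-MS/MS, with channel sums equalised. Samples were the supernatant after 21,000xg for 90 min of pooled aliquots from K562 cells (2×10^6 cells/mL) treated with 10 μM compound for 30 min, heated for 3 min over 48°C-58°C, and extracted in PBS with 0.5% NP-40 at 4°C. Values, from duplicates, describe thermal stability against control samples on a log2 fold-change scale.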

Amino acid sequences for entries named in this document (tags omitted). A change or cut given only in a name is not applied to a line headed by its entry.
UniProt Q14498: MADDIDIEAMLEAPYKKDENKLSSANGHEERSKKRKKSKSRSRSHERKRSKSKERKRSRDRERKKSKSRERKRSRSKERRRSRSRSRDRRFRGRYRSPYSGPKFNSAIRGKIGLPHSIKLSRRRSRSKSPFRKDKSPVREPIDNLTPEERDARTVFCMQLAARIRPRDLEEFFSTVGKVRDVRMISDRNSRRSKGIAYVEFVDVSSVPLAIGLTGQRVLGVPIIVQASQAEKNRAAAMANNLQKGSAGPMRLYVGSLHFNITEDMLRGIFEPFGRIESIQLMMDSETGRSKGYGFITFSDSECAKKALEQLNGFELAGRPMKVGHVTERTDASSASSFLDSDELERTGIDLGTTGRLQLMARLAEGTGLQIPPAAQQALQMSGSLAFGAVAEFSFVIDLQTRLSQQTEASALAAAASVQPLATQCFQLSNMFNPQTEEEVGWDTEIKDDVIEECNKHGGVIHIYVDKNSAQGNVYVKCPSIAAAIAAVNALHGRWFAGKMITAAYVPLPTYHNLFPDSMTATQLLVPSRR
UniProt P35250, whole entry, looked up: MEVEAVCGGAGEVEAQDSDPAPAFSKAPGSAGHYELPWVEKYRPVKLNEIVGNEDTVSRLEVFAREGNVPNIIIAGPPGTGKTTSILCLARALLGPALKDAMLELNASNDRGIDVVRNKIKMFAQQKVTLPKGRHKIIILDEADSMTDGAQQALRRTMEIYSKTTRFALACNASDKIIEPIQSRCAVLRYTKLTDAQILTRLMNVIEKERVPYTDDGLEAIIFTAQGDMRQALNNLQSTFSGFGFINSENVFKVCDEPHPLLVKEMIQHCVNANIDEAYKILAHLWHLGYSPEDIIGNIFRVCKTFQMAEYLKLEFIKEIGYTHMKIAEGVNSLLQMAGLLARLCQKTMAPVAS
UniProt Q6JBY9, whole entry, looked up: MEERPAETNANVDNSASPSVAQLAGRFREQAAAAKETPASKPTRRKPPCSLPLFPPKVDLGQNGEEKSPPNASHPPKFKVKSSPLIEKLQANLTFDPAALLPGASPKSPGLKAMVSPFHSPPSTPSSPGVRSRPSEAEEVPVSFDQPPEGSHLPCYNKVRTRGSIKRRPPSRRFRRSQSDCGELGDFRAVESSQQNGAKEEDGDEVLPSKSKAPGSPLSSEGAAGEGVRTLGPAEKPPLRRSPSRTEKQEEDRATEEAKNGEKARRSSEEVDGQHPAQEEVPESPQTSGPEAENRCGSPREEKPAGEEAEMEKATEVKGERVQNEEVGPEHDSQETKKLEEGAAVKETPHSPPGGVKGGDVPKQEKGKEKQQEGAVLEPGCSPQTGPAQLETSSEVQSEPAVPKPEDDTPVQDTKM
UniProt P34096: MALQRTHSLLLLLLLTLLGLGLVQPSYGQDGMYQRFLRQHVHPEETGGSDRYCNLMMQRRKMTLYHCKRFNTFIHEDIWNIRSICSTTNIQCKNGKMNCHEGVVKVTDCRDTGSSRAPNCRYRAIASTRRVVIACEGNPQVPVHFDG
UniProt Q8TC12: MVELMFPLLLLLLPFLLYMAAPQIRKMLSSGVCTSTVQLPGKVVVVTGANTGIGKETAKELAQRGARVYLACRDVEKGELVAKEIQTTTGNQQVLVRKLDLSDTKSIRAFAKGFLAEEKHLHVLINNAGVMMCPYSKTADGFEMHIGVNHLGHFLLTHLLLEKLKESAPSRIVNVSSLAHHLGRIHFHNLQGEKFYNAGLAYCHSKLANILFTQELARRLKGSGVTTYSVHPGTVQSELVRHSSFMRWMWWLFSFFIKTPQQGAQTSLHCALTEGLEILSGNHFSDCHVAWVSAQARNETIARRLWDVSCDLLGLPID
UniProt Q06330: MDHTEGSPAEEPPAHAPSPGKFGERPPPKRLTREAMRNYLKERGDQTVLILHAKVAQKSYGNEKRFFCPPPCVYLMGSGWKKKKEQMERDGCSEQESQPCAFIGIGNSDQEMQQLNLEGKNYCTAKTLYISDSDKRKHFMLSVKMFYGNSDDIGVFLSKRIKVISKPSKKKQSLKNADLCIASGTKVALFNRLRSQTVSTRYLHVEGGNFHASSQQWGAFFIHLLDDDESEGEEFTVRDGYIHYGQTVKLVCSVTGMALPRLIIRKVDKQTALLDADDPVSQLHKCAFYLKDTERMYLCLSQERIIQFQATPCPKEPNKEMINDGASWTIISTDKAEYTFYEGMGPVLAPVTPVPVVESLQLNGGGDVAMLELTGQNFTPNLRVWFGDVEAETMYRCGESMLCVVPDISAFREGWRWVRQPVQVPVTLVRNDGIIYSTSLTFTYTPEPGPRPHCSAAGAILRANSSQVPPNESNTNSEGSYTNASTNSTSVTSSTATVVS
UniProt Q969G6: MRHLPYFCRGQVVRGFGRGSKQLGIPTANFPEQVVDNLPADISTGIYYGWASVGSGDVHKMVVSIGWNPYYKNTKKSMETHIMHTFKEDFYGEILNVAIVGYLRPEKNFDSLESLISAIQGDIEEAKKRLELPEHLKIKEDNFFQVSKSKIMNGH
UniProt Q04864: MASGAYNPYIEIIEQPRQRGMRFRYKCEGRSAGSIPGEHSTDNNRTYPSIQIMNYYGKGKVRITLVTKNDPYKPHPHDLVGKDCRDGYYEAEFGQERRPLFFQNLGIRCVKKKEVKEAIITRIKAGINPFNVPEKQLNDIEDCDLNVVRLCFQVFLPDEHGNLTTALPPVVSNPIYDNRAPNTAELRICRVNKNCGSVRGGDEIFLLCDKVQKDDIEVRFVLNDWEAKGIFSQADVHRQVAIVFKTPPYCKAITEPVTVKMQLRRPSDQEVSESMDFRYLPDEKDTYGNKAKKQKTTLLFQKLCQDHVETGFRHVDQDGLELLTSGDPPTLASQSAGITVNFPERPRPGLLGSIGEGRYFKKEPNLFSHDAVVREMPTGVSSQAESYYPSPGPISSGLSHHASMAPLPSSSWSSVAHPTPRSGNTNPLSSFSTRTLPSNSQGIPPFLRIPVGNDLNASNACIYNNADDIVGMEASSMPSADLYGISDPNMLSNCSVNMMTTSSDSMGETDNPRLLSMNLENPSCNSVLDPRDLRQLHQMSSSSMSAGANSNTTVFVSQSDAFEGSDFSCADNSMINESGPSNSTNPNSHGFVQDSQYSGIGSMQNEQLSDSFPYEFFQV
UniProt Q8IXI1, whole entry, looked up: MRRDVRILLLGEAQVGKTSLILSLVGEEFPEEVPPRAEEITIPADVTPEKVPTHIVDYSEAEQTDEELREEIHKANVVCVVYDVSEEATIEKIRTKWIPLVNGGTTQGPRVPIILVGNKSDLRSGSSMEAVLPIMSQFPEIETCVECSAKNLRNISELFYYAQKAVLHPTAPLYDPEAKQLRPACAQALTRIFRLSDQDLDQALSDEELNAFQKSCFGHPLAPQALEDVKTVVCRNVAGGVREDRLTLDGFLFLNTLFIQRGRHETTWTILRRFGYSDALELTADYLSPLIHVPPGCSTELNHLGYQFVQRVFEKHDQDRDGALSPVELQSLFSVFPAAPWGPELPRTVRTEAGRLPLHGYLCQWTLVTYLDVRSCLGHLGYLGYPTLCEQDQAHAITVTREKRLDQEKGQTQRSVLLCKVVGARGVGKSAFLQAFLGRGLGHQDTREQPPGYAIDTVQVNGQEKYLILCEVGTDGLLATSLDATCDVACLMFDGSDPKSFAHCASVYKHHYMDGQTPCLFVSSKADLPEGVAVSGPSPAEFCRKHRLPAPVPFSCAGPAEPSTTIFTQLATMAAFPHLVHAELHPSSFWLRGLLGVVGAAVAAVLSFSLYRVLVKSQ
UniProt Q6NUM9: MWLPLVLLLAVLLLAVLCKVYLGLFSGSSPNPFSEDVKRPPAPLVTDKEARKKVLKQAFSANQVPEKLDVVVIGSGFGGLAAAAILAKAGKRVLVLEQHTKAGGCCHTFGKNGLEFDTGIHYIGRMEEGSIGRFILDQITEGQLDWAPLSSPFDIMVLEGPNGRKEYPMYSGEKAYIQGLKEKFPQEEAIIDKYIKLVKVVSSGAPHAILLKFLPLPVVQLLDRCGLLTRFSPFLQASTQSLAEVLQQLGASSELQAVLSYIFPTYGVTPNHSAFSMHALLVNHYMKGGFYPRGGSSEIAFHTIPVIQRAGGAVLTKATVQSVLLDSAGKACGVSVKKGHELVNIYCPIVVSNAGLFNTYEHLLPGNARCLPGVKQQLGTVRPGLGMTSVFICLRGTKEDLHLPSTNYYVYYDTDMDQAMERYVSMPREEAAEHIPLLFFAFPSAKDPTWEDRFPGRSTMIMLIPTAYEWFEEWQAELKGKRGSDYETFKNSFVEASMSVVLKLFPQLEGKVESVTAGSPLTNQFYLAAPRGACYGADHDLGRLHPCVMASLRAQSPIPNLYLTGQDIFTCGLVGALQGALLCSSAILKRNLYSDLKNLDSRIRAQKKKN
UniProt Q96DB5: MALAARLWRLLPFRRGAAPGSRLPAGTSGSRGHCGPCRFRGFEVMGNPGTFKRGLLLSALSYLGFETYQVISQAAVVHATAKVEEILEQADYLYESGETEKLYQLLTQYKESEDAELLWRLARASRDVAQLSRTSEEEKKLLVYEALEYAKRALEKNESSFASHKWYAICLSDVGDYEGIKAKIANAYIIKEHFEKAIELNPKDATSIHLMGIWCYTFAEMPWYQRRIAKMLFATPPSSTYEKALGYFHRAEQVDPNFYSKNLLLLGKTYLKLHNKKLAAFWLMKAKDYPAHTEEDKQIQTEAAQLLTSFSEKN
UniProt P51606: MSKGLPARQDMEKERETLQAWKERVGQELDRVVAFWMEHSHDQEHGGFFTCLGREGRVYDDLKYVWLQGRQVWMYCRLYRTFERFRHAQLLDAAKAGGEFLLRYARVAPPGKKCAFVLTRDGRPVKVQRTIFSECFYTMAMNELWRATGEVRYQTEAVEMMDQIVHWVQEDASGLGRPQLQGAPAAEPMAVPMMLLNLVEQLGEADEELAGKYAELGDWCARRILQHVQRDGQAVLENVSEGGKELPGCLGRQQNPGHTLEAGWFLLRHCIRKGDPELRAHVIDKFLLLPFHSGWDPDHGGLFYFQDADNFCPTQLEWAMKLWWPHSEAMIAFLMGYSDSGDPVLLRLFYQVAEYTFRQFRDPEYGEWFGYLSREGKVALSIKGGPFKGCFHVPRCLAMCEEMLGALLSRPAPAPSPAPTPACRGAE
UniProt O75792: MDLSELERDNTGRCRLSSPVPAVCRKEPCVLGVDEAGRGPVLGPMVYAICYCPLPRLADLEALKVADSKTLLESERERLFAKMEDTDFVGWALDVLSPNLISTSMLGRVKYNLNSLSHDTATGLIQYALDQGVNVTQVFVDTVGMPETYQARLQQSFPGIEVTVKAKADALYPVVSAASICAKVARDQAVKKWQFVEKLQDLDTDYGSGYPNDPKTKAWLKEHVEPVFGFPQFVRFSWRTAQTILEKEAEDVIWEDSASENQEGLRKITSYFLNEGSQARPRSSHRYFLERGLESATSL

[2] = compound: NC(=O)c1cnc(N[C@@H]2CCCC[C@@H]2N)nc1Nc1cccc(-n2nccn2)c1
Outline: as §1

[3] = compound: NC1(c2ccc(-c3nc4ccn5c(=O)[nH]nc5c4cc3-c3ccccc3)cc2)CCC1
Outline: as §1

[4] = compound: NCC(=O)Nc1ccc(-n2nc(C(F)(F)F)cc2-c2ccc3c(ccc4ccccc43)c2)cc1
Outline: as §1

[5] = compound: Nc1ccccc1NC(=O)c1ccc(CNC(=O)OCc2cccnc2)cc1 [entinostat]
Outline: as §1

[6] = compound: O=C(CCCCCCC(=O)Nc1ccccc1)NO [vorinostat]
Outline: as §1

[7] = compound: O=C(CCCCCCNC(=O)c1cnc(N(c2ccccc2)c2ccccc2Cl)nc1)NO [citarinostat]
Outline: as §1

[8] = compound: O=C(O)c1ccc2c(c1)nc(Nc1cccc(Cl)c1)c1ccncc12 [silmitasertib]
Outline: as §1

[9] = compound: O=C1NC(=O)C(c2cnc3ccccn23)=C1c1cn2c3c(cc(F)cc13)CN(C(=O)N1CCCCC1)CC2
Outline: as §1

[10] = compound: c1cc(OCCN2CCCCC2)cc(-c2n[nH]c3ccc(-c4nnc[nH]4)cc23)c1
Outline: as §1

Measured: log2 fold change

RBM39 (UniProt Q14498)
inactive: [1] -0.141 | [2] -0.079 | [3] 0.023 | [4] -0.152 | [5] 0.02 | [6] 0.062 | [7] 0.105 | [8] -0.083 | [9] 0.049 | [10] -0.144

RFC2 (UniProt P35250)
inactive: [1] -0.026 | [2] -0.006 | [3] -0.053 | [4] 0.014 | [5] -0.001 | [6] -0.006 | [7] 0.015 | [8] -0.008 | [9] -0.025 | [10] -0.025

RCSD1 (UniProt Q6JBY9)
inactive: [1] -0.03 | [2] -0.086 | [3] 0.048 | [4] -0.028 | [5] -0.096 | [6] -0.081 | [7] -0.005 | [8] -0.022 | [9] -0.077 | [10] 0.104

RNASE4 (UniProt P34096)
inactive: [1] 0.004 | [2] -0.017 | [3] 0.144 | [4] 0.074 | [5] 0.105 | [6] 0.27 | [7] -0.031 | [8] 0.091 | [9] 0.334 | [10] 0.052

RDH11 (UniProt Q8TC12)
inactive: [1] -0.118 | [2] 0.061 | [3] -0.049 | [4] -0.165 | [5] 0.055 | [6] 0.05 | [7] 0.092 | [8] 0.061 | [9] -0.087 | [10] -0.041

RBPJ (UniProt Q06330)
inactive: [1] -0.032 | [2] -0.06 | [3] -0.041 | [4] -0.019 | [5] -0.036 | [6] 0.031 | [7] 0.009 | [8] 0.025 | [9] 0.043 | [10] -0.035

RFK (UniProt Q969G6)
inactive: [1] -0.001 | [2] 0.091 | [3] -0.034 | [4] 0.021 | [5] -0.042 | [6] 0.016 | [7] 0.146 | [8] 0.013 | [9] -0.125 | [10] -0.044

REL (UniProt Q04864)
inactive: [1] -0.053 | [2] -0.131 | [3] -0.108 | [4] 0.028 | [5] -0.007 | [6] -0.122 | [7] 0.053 | [8] 0.053 | [9] -0.054 | [10] -0.09

RNF213 isoform 4 (UniProt Q63HN8)
inactive: [1] 0.122 | [2] -0.12 | [3] -0.098 | [4] -0.102 | [5] 0.01 | [6] 0.035 | [7] -0.241 | [8] 0.058 | [9] 0.1 | [10] -0.314

RHOT2 (UniProt Q8IXI1)
inactive: [1] -0.08 | [2] -0.035 | [3] -0.047 | [4] -0.052 | [5] -0.02 | [6] 0.022 | [7] 0.057 | [8] -0.001 | [9] 0.019 | [10] -0.03

Two records drawn at random from the list so far:
RHOT2 (UniProt Q8IXI1)
inactive: [1] -0.08 | [2] -0.035 | [3] -0.047 | [4] -0.052 | [5] -0.02 | [6] 0.022 | [7] 0.057 | [8] -0.001 | [9] 0.019 | [10] -0.03

RNASE4 (UniProt P34096)
inactive: [1] 0.004 | [2] -0.017 | [3] 0.144 | [4] 0.074 | [5] 0.105 | [6] 0.27 | [7] -0.031 | [8] 0.091 | [9] 0.334 | [10] 0.052

(continued)

RETSAT (UniProt Q6NUM9)
inactive: [1] -0.058 | [2] -0.05 | [3] -0.028 | [4] -0.019 | [5] 0.129 | [6] -0.048 | [7] 0.028 | [8] -0.014 | [9] 0.026 | [10] -0.047

RMDN1 (UniProt Q96DB5)
inactive: [1] -0.04 | [2] -0.037 | [3] -0.127 | [4] 0.028 | [5] 0.01 | [6] 0.028 | [7] 0.048 | [8] -0.04 | [9] -0.051 | [10] -0.028

RENBP (UniProt P51606)
inactive: [1] -0.028 | [2] 0.014 | [3] -0.006 | [4] -0.058 | [5] -0.016 | [6] -0.058 | [7] 0.011 | [8] 0.027 | [9] -0.05 | [10] 0.029

RNASEH2A (UniProt O75792)
inactive: [1] -0.017 | [2] -0.06 | [3] -0.181 | [4] -0.109 | [5] 0.037 | [6] -0.145 | [7] 0.015 | [8] 0.014 | [9] -0.208 | [10] -0.015
